# Reference: patent US20190358242A1, “COMPOSITIONS, KITS, AND METHODS TO INDUCE ACQUIRED CYTORESISTANCE USING STRESS PROTEIN INDUCERS” (FRED HUTCHINSON CANCER RESEARCH CENTER, priority 2017, published 2019)
# At least one structure is not confirmed: it was looked up by name or label, or the drawing left a doubt.
# System: HO-1 protein
# Assay: Cardiac HO-1 protein (ELISA)
# Type: in vivo, CD-1 mice
# Conditions: 4 h after IV injection
# Procedure: Thirty-two mice were divided into 4 equal groups: (1) control mice; (2) mice treated with 1 mg of N-Mgb injection (as a bolus through the tail vein); (3) mice treated with […] of SnPP (via tail vein); and (4) mice treated with combined N-Mgb 1 SnPP. After either 4 hours (n=16) or 18 hours (n=16), the mice were deeply anesthetized with pentobarbital (50 mg/kg), the abdomen was opened through a midline abdominal incision, and the kidneys were removed. To determine potential effects on extrarenal organs, a liver lobe and the heart were also removed. The tissues were iced and then extracted for protein and RNA (RNeasy Plus Mini; Qiagen, Valencia, Calif.) and subjected to enzyme linked immunosorbent assay (ELISA) and reverse transcriptase polymerase chain reaction (RT-PCR) for HO-1, haptoglobin, and IL-10 protein and messenger RNAs (mRNAs). Zager et al. J Am Soc Nephrol 2014; 25:998-1012; Zager et al. Am J Physiol 2012; 303:F139-48. As an assessment of renal function, control mice and the 18 hour after N-Mgb+SnPP-treated mice had blood urea nitrogen (BUN) and plasma creatinine levels measured. Additionally, transverse 10% formalin fixed kidney sections ([…]) were cut and stained with hematoxylin and eosin (H&E) and periodic acid Schiff (PAS) to further assess potential injury.
structure (smiles),measurement,value
"C=Cc1c2[n-]c(c1C)/C=c1\[n-]/c(c(C)c1C=C)=C\c1[n-]c(c(CCC(=O)O)c1C)/C=c1\[n-]c(c(C)c1CCC(=O)O)=C2.[Sn+4] [SnPP, tin protoporphyrin]",Cardiac Protein HO-1,1.310.13
